Test results published in PubChem BioAssay AID588590 (National Center for Advancing Translational Sciences (NCATS), 2011).
The whole screen tested about 390,000 compounds, of which about 4,000 (1%) were called active. The shares of active, inactive and inconclusive entries below differ from those in the screen. The call rests on the fitted dose curve; in most records, active means well fitted inhibition curve with a large enough effect; inconclusive means small, poorly fitted or top-dose-only effect, or another doubt; inactive means no such curve, though single readings can be large or run the other way. Potencies of inconclusive entries are doubtful fits and often do not repeat.

Protein sequences, listed by entry. Tags and fused reporters are not part of them. Lines headed by an entry give the natural chain unless they say otherwise; changes in a name come on top.
UniProt Q9UNA4: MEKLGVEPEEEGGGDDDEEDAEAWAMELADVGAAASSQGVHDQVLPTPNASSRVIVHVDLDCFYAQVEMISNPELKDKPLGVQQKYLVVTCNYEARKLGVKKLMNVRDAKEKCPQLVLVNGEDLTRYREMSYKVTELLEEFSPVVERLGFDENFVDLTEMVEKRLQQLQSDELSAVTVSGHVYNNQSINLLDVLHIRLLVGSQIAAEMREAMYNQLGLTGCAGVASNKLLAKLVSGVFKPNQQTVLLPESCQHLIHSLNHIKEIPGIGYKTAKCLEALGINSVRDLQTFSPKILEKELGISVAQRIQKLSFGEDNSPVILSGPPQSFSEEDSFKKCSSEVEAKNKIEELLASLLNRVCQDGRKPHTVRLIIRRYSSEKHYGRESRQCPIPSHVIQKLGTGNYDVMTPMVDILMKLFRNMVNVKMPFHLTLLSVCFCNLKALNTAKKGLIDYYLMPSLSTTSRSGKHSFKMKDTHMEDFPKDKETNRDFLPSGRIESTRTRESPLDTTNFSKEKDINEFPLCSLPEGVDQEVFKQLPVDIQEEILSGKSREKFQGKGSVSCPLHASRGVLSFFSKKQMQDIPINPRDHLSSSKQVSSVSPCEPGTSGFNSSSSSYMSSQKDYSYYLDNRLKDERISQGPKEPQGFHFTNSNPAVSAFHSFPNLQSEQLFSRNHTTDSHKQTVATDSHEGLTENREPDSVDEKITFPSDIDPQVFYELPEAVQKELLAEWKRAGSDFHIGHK

Target: DNA polymerase iota (Homo sapiens) (UniProt Q9UNA4)
Experiment: qHTS for Inhibitors of Polymerase Iota
Settings: Pol iota fluorescent replication assay, 10 min; series mostly up to 115 µM
Outline: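 Pol iota at 10 nM preincubated 15 min with compounds at room temperature; reaction started with fluorescent substrate, 50 nM final. Fluorescence read kinetically at 0 and 10 min; buffer-only wells as negative control.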
Potency means the concentration at half of the fitted maximal effect.

Row | SMILES | Potency
1 | Cc1ccc(S(=O)(=O)c2cc3c(=O)n4ccccc4nc3n(Cc3ccco3)c2=N)cc1C | inconclusive: 35.5 µM [inhibitor, partial curve, poor fit]
2 | CC1=C(C(=O)OCc2ccc3nsnc3c2)N2C(=O)[C@@H](NC(=O)OCc3ccc4nsnc4c3)[C@H]2SC1 | inconclusive: 50.1 µM [inhibitor, partial curve]
3 | Cc1ccc(SCc2nc(-c3ccc(C(=O)NCc4ccccc4Cl)cc3)oc2C)cc1 | inactive
4 | Cn1cc(S(=O)(=O)N2CCCC2)cc1C(=O)Nc1ccc(C(F)(F)F)cc1 | inconclusive: 63.1 µM [inhibitor, partial curve, poor fit]
5 | O=C(Nc1ccc(NC(=O)c2ccc(Br)cc2)c(Cl)c1)c1ccc(Br)cc1 | inactive
6 | Nc1nc(Cl)cc(N2CCC(c3cc(-c4ccc(Cl)cc4Cl)n[nH]3)CC2)n1 | inconclusive: 17.8 µM [inhibitor, single point]
7 | COc1cccc(-c2nc(CS(=O)(=O)CC(=O)NCCCN3CCN(C)CC3)c(C)o2)c1 | inconclusive: 79.4 µM [inhibitor, partial curve, poor fit]
8 | CCCCCn1c(=O)[nH]c2cc(C(=O)Nc3ccc(OC)c(OC)c3)ccc2c1=O | inconclusive: 89.1 µM [inhibitor, single point]
9 | C(=C\c1nccc2ccccc12)/c1ccc(N2CCOCC2)cc1 | inactive
10 | COc1ccc(CSc2nc3nc(C)cc(C)n3n2)cc1F | inconclusive: 0.282 µM [inhibitor, full curve, poor fit]
11 | O=C(Cn1ncc(Cl)c(Cl)c1=O)NCC1CCCCC1 | inconclusive: 22.4 µM [inhibitor, full curve, poor fit]
12 | Cc1ccc(NC(=O)/C=C/c2ccco2)cc1S(=O)(=O)N1CCCCCC1 | inconclusive: 35.5 µM [inhibitor, partial curve]
13 | COc1ccc(N2CCN(CC(O)COc3ccc(C(C)C)c(C)c3)CC2)cc1 (stereo not given) | inactive
14 | Cc1n[nH]c(=O)c2c(NC(=O)CSc3nn(-c4ccc(F)cc4)c(=S)s3)oc(C)c12 | inconclusive: 25.1 µM [inhibitor, partial curve]
15 | O=C(Nc1ccc(Cl)c(Cl)c1)C1CCN(C(=O)c2ccco2)CC1 | inactive
16 | Cc1nn(C)c(Cl)c1CN1CCCC(CO)(Cc2cccc(Cl)c2)C1 (stereo not given) | inconclusive: 79.4 µM [inhibitor, single point]
17 | CCCCCNS(=O)(=O)c1ccc(N2CCCCS2(=O)=O)cc1 | inactive
18 | COc1cccc2c(N/N=C/c3ccccc3)cc(C)nc12 | inactive
19 | O=C(C[n+]1cc(Br)cc2ccccc21)c1ccc(O)c(O)c1 | inconclusive: 1.12 µM [inhibitor, full curve, poor fit]
20 | CCOC(=O)CSc1nc(COc2ccccc2)nc2ccccc12 | inactive
21 | CCOc1c(O)ccc(C2NC(=O)NC(C)=C2C(=O)OC)c1[N+](=O)[O-] (stereo not given) | inconclusive: 20 µM [inhibitor, full curve]
22 | c1cc2nnnn2nc1N1CCCCC1 | inconclusive: 79.4 µM [inhibitor, partial curve, poor fit]

3 of the compounds above, as comma-separated lines.
Row,SMILES,Potency
7,COc1cccc(-c2nc(CS(=O)(=O)CC(=O)NCCCN3CCN(C)CC3)c(C)o2)c1,"inconclusive: 79.4 µM [inhibitor, partial curve, poor fit]"
16,Cc1nn(C)c(Cl)c1CN1CCCC(CO)(Cc2cccc(Cl)c2)C1 (stereo not given),"inconclusive: 79.4 µM [inhibitor, single point]"
22,c1cc2nnnn2nc1N1CCCCC1,"inconclusive: 79.4 µM [inhibitor, partial curve, poor fit]"

Quoted from the listing:
Entry of `Cc1ccc(SCc2nc(-c3ccc(C(=O)NCc4ccccc4Cl)cc3)oc2C)cc1` under Potency: inactive
Entry of `Cc1ccc(S(=O)(=O)c2cc3c(=O)n4ccccc4nc3n(Cc3ccco3)c2=N)cc1C` under Potency: inconclusive: 35.5 µM [inhibitor, partial curve, poor fit]

Continued:

Row | SMILES | Potency
23 | CC(Oc1ccc(S(=O)(=O)N2CCCC2)cc1[N+](=O)[O-])C(=O)N(C)c1ccccc1 (stereo not given) | inconclusive: 100 µM [inhibitor, single point]
24 | COCCn1c(SCC(=O)c2c(N)n(C)c(=O)n(C)c2=O)nc2ccccc21 | inactive
25 | N#CC1(NC(=O)Cn2ncc(Cl)c(Cl)c2=O)CCCCC1 | inconclusive: 10 µM [inhibitor, full curve, poor fit]
26 | COc1cccc([C@@H]2Nc3ccc(C(=O)O)cc3[C@@H]3C=CC[C@@H]32)c1OC | inactive
27 | O=c1[nH]c(=O)c2[nH]c(=S)n(-c3ccccc3)c2[nH]1 | inactive
28 | COc1ccc(OC)c2c(/C=C/c3c[nH]c4ccccc34)ccnc12 | inconclusive: 56.2 µM [inhibitor, partial curve, poor fit]
29 | COc1cc(/C=C/c2nc3ccccc3c(=O)[nH]2)cc(OC)c1OC | inconclusive: 7.94 µM [inhibitor, partial curve, poor fit]
30 | CN(C1CCCCC1)S(=O)(=O)c1ccc2[nH]c(=O)oc2c1 | inconclusive: 89.1 µM [inhibitor, single point]
31 | O=C(CNC(=O)c1cccs1)N/N=C/c1ccc(O)cc1O | inconclusive: 100 µM [inhibitor, single point]
32 | COc1ccccc1NC(=O)CSc1nc2sc(C)c(C)c2c(=O)n1C | inactive
33 | O=c1cc(C23CC4CC(CC(C4)C2)C3)[nH][nH]1 | inconclusive: 22.4 µM [inhibitor, full curve, poor fit]
34 | Cc1cc(C(=O)COC(=O)c2cccc(O)c2)c(C)n1C1CC1 | inconclusive: 79.4 µM [inhibitor, partial curve]
35 | Cc1ccc(S(=O)(=O)NCC(c2ccco2)N2CCN(c3ccccc3F)CC2)cc1 (stereo not given) | inactive
36 | O=C(CN(c1ccc(Cl)cc1)S(=O)(=O)c1ccccc1)N/N=C/c1ccco1 | inconclusive: 12.6 µM [inhibitor, full curve, poor fit]
37 | N#CC1=C(N)Oc2ccc3ccc(O)cc3c2C1c1ccsc1 (stereo not given) | inconclusive: 31.6 µM [inhibitor, single point]
38 | Cn1cnnc1SC(C(=O)c1ccccc1)c1ccccc1 (stereo not given) | inconclusive: 39.8 µM [inhibitor, partial curve, poor fit]
39 | COc1ccc(OC)c(C(=O)/C=C/c2cccnc2)c1 | inconclusive: 28.2 µM [inhibitor, partial curve, poor fit]
40 | c1ccc2c(c1)ncn2Cc1nnc2sc(-c3ccc4c(c3)OCO4)nn12 | inconclusive: 35.5 µM [inhibitor, single point]
41 | COc1ccc(OC)c2sc(N(Cc3cccnc3)C(=O)c3ccc(C(C)=O)cc3)nc12 | inconclusive: 7.08 µM [inhibitor, partial curve, poor fit]
42 | COc1ccc(-c2nc(C)c(CCNC(=O)c3cc(OC)c(OC)c(OC)c3)s2)cc1OC | inactive
43 | CN(CC(=O)O)Cc1nc2ccccc2[nH]1 | inconclusive: 4.47 µM [inhibitor, partial curve, poor fit]
44 | O=C(Nc1ccc2nn(-c3ccccc3)nc2c1)c1ccc2c(c1)OCO2 | inactive

Row | SMILES | Potency
45 | Cc1nnc(SCC(=O)NCc2ccc(N(C)C)cc2)c2nn(-c3ccccc3)c(C)c12 | inconclusive: 79.4 µM [inhibitor, partial curve, poor fit]
46 | Cc1cc2nc(CCl)cc(=O)n2[nH]1 | inconclusive: 56.2 µM [inhibitor, partial curve, poor fit]
47 | O=C(CCc1nc2ccccc2c(=O)[nH]1)OCc1ccccc1F | inconclusive: 89.1 µM [inhibitor, single point]
48 | CN(C)c1ccc(/C=C/c2ncnc3ccccc23)cc1 | active: 39.8 µM
49 | CC(NC(=O)COC(=O)c1ccc([N+](=O)[O-])s1)c1ccccc1 (stereo not given) | inconclusive: 89.1 µM [inhibitor, single point]
50 | O=C(CO/N=C/c1ccccc1)N1c2ccccc2Oc2ccccc21 | inconclusive: 35.5 µM [inhibitor, partial curve, poor fit]
51 | COc1cc(C(=O)NNC(=O)COc2cccc(F)c2)ccc1OCC(=O)N1CCOCC1 | inconclusive: 2.82 µM [inhibitor, full curve, poor fit]
52 | C/C(=N/OCc1ccc(Br)cc1)c1ccccn1 | inconclusive: 100 µM [inhibitor, partial curve, poor fit]
53 | O=C(C1CCCO1)N1CCN(Cc2nc3ccccc3c(=O)[nH]2)CC1 (stereo not given) | inconclusive: 70.8 µM [inhibitor, partial curve]
54 | COC(=O)C1=C(C)N=C2SC(C)C(=O)N2C1/C=C/c1ccccc1OC (stereo not given) | inconclusive: 0.708 µM [inhibitor, full curve, poor fit]
55 | COc1ccc(Cn2ccc3nc(C)c(C(=O)NCc4ccc(C)cc4)cc3c2=O)cc1 | inconclusive: 89.1 µM [inhibitor, single point]
56 | COc1cc2c(NC3CCN(C)CC3)nc(N3CCCN(C)CC3)nc2cc1OCCCN1CCCC1 | inconclusive: 17.8 µM [inhibitor, full curve, poor fit]
57 | CN(Cc1cccc(F)c1)C(=O)c1ccc(S(=O)(=O)N2CCOCC2)cc1 | inactive
58 | O=C(CCS(=O)(=O)c1cccc2nonc12)Nc1cccc(F)c1 | inconclusive: 5.01 µM [inhibitor, full curve]
59 | O=C1c2ccccc2C(=O)N1/N=C/c1ccc(O)c(O)c1O | inconclusive: 1 µM [inhibitor, full curve, poor fit]
60 | CCc1ccc2[nH]c(=O)c(CN(Cc3ccco3)Cc3nnnn3Cc3ccco3)cc2c1 | inconclusive: 100 µM [inhibitor, single point]
61 | COc1cc(/C=C2\SC(=S)N(N(C)c3ccccc3)C2=O)ccc1O | inconclusive: 50.1 µM [inhibitor, partial curve, poor fit]
62 | CC(=O)Nc1cccc(NC(=O)CCNC(=O)c2ccc(Cl)cc2)c1 | inconclusive: 44.7 µM [inhibitor, partial curve]
63 | COc1ccc(CN(Cc2ccco2)c2cnc(S(C)(=O)=O)nc2C(=O)Nc2ccc(C)c(C)c2)cc1 | inactive
64 | CC(=O)NCCNC(=O)c1cccc(NS(=O)(=O)c2ccc3c(c2)OCCO3)c1 | inconclusive: 89.1 µM [inhibitor, single point]
65 | COc1cc2ccc(=O)oc2c(O)c1O | inconclusive: 50.1 µM [inhibitor, partial curve, poor fit]
